Source: the supplement of paper PMC10849652
Some of the results follow.

Chains of the proteins cited; added tags and fusions are not shown. Lines headed by an entry give the natural chain unless they say otherwise; changes in a name come on top.
UniProt Q96QT4: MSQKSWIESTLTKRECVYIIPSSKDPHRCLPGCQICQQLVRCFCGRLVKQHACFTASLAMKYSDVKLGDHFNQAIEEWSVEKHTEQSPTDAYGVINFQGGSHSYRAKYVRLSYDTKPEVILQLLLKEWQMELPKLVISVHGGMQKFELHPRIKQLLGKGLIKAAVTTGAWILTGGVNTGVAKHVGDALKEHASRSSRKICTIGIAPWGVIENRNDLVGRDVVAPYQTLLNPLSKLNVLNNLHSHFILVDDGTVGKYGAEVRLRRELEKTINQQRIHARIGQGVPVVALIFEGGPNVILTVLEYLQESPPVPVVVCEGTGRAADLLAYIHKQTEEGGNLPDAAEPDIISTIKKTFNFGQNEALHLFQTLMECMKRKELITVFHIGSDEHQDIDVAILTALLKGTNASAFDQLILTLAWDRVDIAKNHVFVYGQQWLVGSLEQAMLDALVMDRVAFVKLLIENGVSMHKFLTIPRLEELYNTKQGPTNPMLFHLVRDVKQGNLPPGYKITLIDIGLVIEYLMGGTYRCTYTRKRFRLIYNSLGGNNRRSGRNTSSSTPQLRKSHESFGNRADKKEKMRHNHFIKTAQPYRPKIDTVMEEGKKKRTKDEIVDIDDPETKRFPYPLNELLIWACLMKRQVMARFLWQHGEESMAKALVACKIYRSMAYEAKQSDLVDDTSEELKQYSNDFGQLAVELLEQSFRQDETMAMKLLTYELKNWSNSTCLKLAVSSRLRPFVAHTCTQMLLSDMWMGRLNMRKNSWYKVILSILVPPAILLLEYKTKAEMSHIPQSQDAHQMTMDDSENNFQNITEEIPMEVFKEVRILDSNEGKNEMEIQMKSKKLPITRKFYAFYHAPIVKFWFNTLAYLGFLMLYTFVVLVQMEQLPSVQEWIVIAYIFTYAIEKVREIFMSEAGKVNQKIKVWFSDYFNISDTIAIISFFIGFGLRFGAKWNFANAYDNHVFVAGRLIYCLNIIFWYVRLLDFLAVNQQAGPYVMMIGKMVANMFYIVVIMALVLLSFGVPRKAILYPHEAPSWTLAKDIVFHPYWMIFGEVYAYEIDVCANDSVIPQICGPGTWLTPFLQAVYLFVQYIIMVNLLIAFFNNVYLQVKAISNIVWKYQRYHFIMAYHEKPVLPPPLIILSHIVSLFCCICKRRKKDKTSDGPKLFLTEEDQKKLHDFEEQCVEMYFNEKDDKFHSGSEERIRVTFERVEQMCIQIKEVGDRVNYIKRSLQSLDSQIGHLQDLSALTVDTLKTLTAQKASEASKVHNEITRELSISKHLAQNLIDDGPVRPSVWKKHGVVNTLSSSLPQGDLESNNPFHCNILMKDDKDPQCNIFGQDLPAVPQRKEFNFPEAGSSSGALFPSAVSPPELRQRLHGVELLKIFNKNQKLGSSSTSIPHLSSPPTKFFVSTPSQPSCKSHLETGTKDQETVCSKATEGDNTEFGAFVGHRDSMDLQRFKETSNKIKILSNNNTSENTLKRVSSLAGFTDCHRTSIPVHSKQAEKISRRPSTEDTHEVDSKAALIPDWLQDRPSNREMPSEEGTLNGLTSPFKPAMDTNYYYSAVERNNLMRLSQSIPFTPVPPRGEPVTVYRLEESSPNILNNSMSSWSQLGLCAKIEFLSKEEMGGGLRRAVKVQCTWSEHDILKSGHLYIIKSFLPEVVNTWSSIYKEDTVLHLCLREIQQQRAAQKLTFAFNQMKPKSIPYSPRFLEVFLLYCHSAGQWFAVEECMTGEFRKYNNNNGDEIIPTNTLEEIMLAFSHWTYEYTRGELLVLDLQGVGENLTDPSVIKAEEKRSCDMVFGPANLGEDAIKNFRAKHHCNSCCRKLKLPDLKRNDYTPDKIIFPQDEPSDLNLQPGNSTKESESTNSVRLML
UniProt Q16890: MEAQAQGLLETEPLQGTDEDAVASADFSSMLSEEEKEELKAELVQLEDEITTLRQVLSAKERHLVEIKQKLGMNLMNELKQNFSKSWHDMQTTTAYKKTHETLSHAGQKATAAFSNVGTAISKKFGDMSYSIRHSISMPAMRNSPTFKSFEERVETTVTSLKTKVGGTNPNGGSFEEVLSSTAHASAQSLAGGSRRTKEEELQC
UniProt Q53FA7: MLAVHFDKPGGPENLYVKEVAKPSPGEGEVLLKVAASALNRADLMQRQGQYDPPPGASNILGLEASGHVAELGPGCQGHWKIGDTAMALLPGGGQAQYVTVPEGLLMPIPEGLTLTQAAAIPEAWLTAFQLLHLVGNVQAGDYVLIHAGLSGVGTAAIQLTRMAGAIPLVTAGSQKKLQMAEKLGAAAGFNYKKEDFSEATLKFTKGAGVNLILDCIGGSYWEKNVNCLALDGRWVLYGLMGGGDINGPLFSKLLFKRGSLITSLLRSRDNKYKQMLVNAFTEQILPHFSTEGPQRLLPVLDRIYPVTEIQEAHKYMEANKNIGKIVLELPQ
UniProt Q9C0C2: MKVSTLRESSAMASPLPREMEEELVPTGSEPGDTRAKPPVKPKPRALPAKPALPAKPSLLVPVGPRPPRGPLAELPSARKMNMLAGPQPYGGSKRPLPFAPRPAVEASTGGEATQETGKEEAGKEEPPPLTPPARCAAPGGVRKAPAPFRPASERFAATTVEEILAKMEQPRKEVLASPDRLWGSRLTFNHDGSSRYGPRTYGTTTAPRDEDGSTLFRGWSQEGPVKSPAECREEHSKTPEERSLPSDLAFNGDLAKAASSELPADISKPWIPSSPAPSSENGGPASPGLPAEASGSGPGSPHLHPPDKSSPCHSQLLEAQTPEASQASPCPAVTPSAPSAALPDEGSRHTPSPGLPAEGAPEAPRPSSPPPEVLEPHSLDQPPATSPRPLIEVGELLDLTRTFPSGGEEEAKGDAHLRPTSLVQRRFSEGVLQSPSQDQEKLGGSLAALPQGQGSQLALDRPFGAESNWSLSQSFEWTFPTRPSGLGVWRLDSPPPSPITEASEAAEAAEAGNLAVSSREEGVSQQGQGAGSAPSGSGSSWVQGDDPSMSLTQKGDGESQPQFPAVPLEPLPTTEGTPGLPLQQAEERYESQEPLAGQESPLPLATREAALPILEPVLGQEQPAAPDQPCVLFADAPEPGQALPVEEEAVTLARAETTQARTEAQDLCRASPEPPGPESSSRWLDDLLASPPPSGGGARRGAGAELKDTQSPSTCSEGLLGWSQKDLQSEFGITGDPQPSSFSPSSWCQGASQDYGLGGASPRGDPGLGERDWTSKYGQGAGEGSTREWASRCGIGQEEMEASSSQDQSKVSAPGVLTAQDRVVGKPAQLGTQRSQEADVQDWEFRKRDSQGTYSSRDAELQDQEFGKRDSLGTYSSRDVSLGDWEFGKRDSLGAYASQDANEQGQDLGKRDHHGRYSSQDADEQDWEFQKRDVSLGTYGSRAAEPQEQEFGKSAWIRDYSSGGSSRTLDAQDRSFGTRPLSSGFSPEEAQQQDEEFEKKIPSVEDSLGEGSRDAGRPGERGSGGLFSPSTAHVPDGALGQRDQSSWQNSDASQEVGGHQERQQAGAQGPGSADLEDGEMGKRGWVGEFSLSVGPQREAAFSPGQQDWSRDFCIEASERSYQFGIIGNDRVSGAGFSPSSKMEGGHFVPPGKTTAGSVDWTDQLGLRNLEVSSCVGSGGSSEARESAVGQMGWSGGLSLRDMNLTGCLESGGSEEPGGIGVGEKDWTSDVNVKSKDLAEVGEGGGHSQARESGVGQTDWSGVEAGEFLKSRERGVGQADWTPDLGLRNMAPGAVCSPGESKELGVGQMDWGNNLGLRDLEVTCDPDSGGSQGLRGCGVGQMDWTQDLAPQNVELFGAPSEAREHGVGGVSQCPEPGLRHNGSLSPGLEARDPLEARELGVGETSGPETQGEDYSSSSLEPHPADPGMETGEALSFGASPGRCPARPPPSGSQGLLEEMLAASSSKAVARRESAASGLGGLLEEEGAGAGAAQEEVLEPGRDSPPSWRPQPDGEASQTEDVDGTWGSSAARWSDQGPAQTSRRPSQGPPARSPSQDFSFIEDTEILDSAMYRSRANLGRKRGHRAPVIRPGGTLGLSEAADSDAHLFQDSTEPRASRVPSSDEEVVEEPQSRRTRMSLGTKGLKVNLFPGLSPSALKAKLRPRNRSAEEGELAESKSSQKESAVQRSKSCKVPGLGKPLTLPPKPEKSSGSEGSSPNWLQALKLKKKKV
UniProt Q14258, whole entry, looked up: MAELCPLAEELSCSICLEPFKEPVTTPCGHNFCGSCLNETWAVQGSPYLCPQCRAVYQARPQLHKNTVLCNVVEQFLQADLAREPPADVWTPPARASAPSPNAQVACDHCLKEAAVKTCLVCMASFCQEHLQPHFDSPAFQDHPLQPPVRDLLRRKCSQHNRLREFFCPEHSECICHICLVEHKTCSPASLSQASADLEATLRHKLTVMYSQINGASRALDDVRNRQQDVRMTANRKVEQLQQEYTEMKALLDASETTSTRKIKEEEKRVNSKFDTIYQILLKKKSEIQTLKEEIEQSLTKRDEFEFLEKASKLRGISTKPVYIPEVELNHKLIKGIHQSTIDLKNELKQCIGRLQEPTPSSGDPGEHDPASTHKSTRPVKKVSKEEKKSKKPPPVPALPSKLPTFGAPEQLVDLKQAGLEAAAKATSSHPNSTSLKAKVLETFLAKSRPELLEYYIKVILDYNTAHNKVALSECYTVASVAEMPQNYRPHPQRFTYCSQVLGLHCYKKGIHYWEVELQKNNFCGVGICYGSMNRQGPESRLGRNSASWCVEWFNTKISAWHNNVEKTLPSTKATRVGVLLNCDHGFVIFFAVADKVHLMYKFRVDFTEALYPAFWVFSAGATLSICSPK
UniProt Q96GJ1: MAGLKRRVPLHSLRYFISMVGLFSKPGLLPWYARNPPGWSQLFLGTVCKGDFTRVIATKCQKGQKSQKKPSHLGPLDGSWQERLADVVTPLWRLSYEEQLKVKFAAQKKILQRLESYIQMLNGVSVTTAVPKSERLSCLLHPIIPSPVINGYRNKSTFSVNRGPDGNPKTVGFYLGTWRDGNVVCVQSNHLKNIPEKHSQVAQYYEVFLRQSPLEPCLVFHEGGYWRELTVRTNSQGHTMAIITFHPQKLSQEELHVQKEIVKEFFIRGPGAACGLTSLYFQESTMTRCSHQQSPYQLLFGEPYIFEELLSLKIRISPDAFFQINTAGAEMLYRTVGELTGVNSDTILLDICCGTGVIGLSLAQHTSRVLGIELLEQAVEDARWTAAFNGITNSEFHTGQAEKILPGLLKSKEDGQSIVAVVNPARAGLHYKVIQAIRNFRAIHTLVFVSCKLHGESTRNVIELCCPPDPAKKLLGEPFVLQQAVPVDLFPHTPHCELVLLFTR
UniProt Q9ULW0, whole entry, looked up: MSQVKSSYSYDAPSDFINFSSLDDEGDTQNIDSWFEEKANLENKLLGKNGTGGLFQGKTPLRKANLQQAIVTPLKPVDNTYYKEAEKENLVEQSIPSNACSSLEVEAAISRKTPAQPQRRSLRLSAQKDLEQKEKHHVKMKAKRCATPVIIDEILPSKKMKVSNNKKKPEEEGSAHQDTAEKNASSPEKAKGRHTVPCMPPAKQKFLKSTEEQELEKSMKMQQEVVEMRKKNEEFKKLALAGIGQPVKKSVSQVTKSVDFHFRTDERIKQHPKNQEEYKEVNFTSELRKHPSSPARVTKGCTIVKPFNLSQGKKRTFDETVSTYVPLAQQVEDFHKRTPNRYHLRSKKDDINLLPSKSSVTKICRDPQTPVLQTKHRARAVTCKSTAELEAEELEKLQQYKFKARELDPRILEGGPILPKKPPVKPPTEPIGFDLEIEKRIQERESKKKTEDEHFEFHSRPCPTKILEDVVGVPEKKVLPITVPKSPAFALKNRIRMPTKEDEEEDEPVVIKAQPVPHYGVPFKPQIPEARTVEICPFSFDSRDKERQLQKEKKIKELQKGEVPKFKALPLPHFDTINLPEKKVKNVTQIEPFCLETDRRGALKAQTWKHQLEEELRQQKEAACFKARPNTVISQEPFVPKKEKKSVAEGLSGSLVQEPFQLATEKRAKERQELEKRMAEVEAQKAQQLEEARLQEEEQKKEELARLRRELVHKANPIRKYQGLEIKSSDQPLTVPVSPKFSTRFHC

Each target was assayed with c1cn2cc(-c3ccc4cn[nH]c4c3)nc(Nc3ccc(N4CCOCC4)cc3)c2n1 [entospletinib] (assay: log2 fold change, soluble protein after heating vs DMSO (PISA); higher = thermal stabilisation; K562 cells, 10 uM, 30 min; active = over 0.2 and 3.5 SD of the protein, either way, in both replicates (recomputed)).
In short: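 K562 cells (2×10^6 cells/mL) were treated with 10 μM compound for 30 min, and aliquots were heated for 3 min over 48°C-58°C. Pooled aliquots were extracted in PBS with 0.5% NP-40 at 4°C, and the supernatant after 21,000xg for 90 min was measured by TMTpro 16plex LC-MS/MS with channel sums equalised. Reported thermal stability, relative to control samples and from duplicates, is a log2 fold change.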

log2 fold change, inactive:
TRPM7 (UniProt Q96QT4) 0.07, TPD52L1 (UniProt Q16890) -0.019, TPRKB (UniProt Q9Y3C4) -0.016, TP53I3 (UniProt Q53FA7) -0.069, TNKS1BP1 (UniProt Q9C0C2) 0.016, TRIM25 (UniProt Q14258) 0.101, TPP2 (UniProt Q5VZU9) 0.023, TRMT2B (UniProt Q96GJ1) 0.123, TPX2 (UniProt Q9ULW0) 0.032
